Reference: publication PMC9952136 (Antibiotics, 2023)

Assay: Pharmacokinetic studies of ENR and SAL in broilers (plasma, non-compartmental);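 note: plasma drug levels measured by HPLC or LC-MS/MS, with PK parameters obtained through non-compartmental analysis in WinNonlin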
Details: AA broiler, po, 7.5 mg/kg, n=6, Mean ± SD; for AUC(0-t): AUC0-24h; for AUC(0-inf): AUC0-∞
[1] = SAL (5 d) + ENR: SAL 60 mg/kg mixed feeding 5 days, then ENR 7.5 mg/kg gavage
[2] = SAL + ENR: ENR 7.5 mg/kg + SAL 6.0 mg/kg co-gavage

Work on O=C(O)c1cn(C2CC2)c2cc(N3CCNCC3)c(F)cc2c1=O [CIP, ciprofloxacin] yielded an AUC(0-t) (ENR (7.5 mg/kg) gavage alone) of 540 ± 180 ng·h/mL, an AUC(0-t) [1] of 1220 ± 160 ng·h/mL and an AUC(0-t) [2] of 1290 ± 150 ng·h/mL. The AUC(0-inf) (ENR (7.5 mg/kg) gavage alone) was 670 ± 210 ng·h/mL, the AUC(0-inf) [1] was 1570 ± 130 ng·h/mL and the AUC(0-inf) [2] was 1840 ± 320 ng·h/mL. It also gave a Cmax (ENR (7.5 mg/kg) gavage alone) of 80 ± 30 ng/mL, a Cmax [1] of 110 ± 20 ng/mL and a Cmax [2] of 100 ± 30 ng/mL. For the same compound, the Tmax (ENR (7.5 mg/kg) gavage alone) was 3.33 ± 1.03 h, the Tmax [1] was 3 ± 1.1 h and the Tmax [2] was 3.2 ± 1.1 h.
